These are yes or no findings as the source states them, for the method shown. Some results given as binding are weak or reduced against the parent protein; the word gives no strength.
How the values were obtained:
[1] = target: T1, human IL-23 (human, UniProt P29460 23-328; Q9NPF7 20-189); assay: crystal structure
T1 construct: Secreted from Sf9 cells for the crystal structure; One molecule is used for all three; also called Interleukin-23
T1 sequence (looked up) 1: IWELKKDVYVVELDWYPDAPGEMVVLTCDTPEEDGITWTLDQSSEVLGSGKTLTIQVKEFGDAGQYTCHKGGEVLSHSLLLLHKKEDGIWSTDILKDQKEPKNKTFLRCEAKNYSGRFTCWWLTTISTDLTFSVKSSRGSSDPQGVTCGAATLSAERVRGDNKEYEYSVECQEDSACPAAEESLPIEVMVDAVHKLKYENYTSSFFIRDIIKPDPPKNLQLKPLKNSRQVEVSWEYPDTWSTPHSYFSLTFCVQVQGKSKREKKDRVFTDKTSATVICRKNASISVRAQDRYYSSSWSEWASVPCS
T1 sequence (looked up) 2: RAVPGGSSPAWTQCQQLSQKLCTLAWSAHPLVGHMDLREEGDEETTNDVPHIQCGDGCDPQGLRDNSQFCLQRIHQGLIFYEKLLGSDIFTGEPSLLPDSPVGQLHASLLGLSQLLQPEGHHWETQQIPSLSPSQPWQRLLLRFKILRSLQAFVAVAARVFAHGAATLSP

[2] = target: T1, human IL-23; assay: crystal structure, figure legend
[3] = target: T1, human IL-23; assay: size exclusion chromatography of the complex

Measured: binding

B1: Adnectin 2 (designed binder)
chain: MGVSDVPRDLEVVAATPTSLLISWEHDYPYRRYYRITYGETGGNSPVQEFTVPKDVDTATISGLKPGVDYTITVYAVTSSYKYDMQYSPISINYRTEIDKPSQHHHHHH
notes: also called anti-IL-23 Adnectin; ATI-000929
binds: all assays above

Source: patent publication US20210070840A1 (Bristol-Myers Squibb, published 2021)
